Source: doi:10.1371/journal.pone.0140310, primary screening data, rounded.

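Human melanoma cells were exposed to two drugs together for 72 h in 1,536-well plates and read by automated microscopy after fixing and staining. Each value is the cleaved-PARP-positive fraction of nuclei relative to DMSO-treated wells, in %, so that 100 equals the control and higher values mean more apoptosis. Concentrations were fixed for each drug; these are the higher of two levels. No replicate spread is given; individual values may be noisy. The marker varies much from line to line, for technical or biological reasons.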 An unselected part of the screen is shown. A dash means that no value is listed here.

All values are for the listed drug together with RKI-983 (2000 nM): C[C@@H](N)c1ccc(C(=O)Nc2ccnc3[nH]ccc23)cc1

Drugs:
CX-4945 (2000 nM): O=C(O)c1ccc2c(c1)nc(Nc1cccc(Cl)c1)c1ccncc12
T0901317 (7000 nM): O=S(=O)(c1ccccc1)N(CC(F)(F)F)c1ccc(C(O)(C(F)(F)F)C(F)(F)F)cc1
BMS-536924 (1000 nM): Cc1cc(N2CCOCC2)cc2[nH]c(-c3c(NC[C@@H](O)c4cccc(Cl)c4)cc[nH]c3=O)nc12
dovitinib (500 nM): CN1CCN(c2ccc3nc(-c4c(N)c5c(F)cccc5[nH]c4=O)[nH]c3c2)CC1
GW0742 (10000 nM): Cc1cc(SCc2sc(-c3ccc(C(F)(F)F)c(F)c3)nc2C)ccc1OCC(=O)O
PF-04217903 (5000 nM): OCCn1cc(-c2cnc3nnn(Cc4ccc5ncccc5c4)c3n2)cn1
Src-I1 (10000 nM): COc1cc2ncnc(Nc3ccc(Oc4ccccc4)cc3)c2cc1OC
gemcitabine (2 nM): Nc1ccn([C@@H]2O[C@H](CO)[C@@H](O)C2(F)F)c(=O)n1
erlotinib (4000 nM): C#Cc1cccc(Nc2ncnc3cc(OCCOC)c(OCCOC)cc23)c1
dorsomorphin (2000 nM): c1cc(-c2cnn3cc(-c4ccc(OCCN5CCCCC5)cc4)cnc23)ccn1
GSK650394 (800 nM): O=C(O)c1ccc(-c2c[nH]c3ncc(-c4ccccc4)cc23)cc1C1CCCC1
perifosine (2000 nM): CCCCCCCCCCCCCCCCCCOP(=O)([O-])OC1CC[N+](C)(C)CC1
darinaparsin (2000 nM): C[As](C)SC[C@H](NC(=O)CC[C@H](N)C(=O)O)C(=O)NCC(=O)O
fludarabine (1000 nM): Nc1nc(F)nc2c1ncn2[C@@H]1O[C@H](CO)[C@@H](O)[C@@H]1O
SNS-032 (50 nM): CC(C)(C)c1cnc(CSc2cnc(NC(=O)C3CCNCC3)s2)o1
STA-4783 (30 nM): CN(NC(=O)CC(=O)NN(C)C(=S)c1ccccc1)C(=S)c1ccccc1
veliparib (7000 nM): C[C@]1(c2nc3c(C(N)=O)cccc3[nH]2)CCCN1
ABT-263 (2000 nM): CC1(C)CCC(c2ccc(Cl)cc2)=C(CN2CCN(c3ccc(C(=O)NS(=O)(=O)c4ccc(N[C@H](CCN5CCOCC5)CSc5ccccc5)c(S(=O)(=O)C(F)(F)F)c4)cc3)CC2)C1
vorinostat (400 nM): O=C(CCCCCCC(=O)Nc1ccccc1)NO
CP-690550 (5000 nM): C[C@@H]1CCN(C(=O)CC#N)C[C@@H]1N(C)c1ncnc2[nH]ccc12
SU6656 (2000 nM): CN(C)S(=O)(=O)c1ccc2c(c1)/C(=C/c1cc3c([nH]1)CCCC3)C(=O)N2
GSK0660 (5000 nM): COC(=O)c1sccc1S(=O)(=O)Nc1ccc(Nc2ccccc2)cc1OC

Partner,RPMI-7951,MeWo,WM451Lu,SK-MEL-2,MZ2-MEL,UACC-257,RVH-421,WM1745
SNS-032,415,308,334,171,549,97.4,555,159
CP-690550,285,203,205,157,275,146,204,147
STA-4783,258,5680,75.2,285,105,83.3,336,333
dorsomorphin,312,196,177,106,475,28.1,92.4,-
BMS-536924,484,188,253,211,739,106,222,341
erlotinib,258,183,120,168,244,26.4,133,217
dovitinib,122,290,201,454,1110,175,236,309
GSK650394,66.1,144,112,252,496,161,153,125
GSK0660,151,228,161,239,170,95.7,184,-
ABT-263,139,641,127,495,1280,1210,287,2350
perifosine,377,144,205,163,278,73.8,241,215
SU6656,129,351,131,233,1570,99.9,214,235
PF-04217903,135,279,226,127,278,142,261,157
veliparib,92.1,315,132,320,463,79.9,127,134
darinaparsin,58.5,217,291,150,155,228,216,136
CX-4945,187,393,75.4,454,1120,340,46.3,315
fludarabine,233,227,49.9,1940,239,4610,131,127
vorinostat,229,129,61.2,255,431,144,99.9,113
GW0742,204,512,62.8,535,471,223,525,-
gemcitabine,201,333,407,137,158,83.9,170,243
Src-I1,487,229,350,125,242,184,284,-
T0901317,158,311,56.4,179,209,67.5,219,-

The first 3 entries again:

Partner,RPMI-7951,MeWo,WM451Lu,SK-MEL-2,MZ2-MEL,UACC-257,RVH-421,WM1745
SNS-032,415,308,334,171,549,97.4,555,159
CP-690550,285,203,205,157,275,146,204,147
STA-4783,258,5680,75.2,285,105,83.3,336,333